{"source": "paper PMC3237483", "molecular_target": "His-tagged Ship2 Sh2 domain", "assay": "far-Western, overlay or dot blot; His-tagged Sh2 domains dot-blotted on a PVDF membrane; membrane incubated with GST-Nephrin cytoplasmic domain from TKB1 (phosphorylated) or BL21 (unphosphorylated) E. coli; probed with GST-HRP antibody; both purified", "note": "No constants are given. Whether binding was seen depends on the method and setting. Binding can be weak; no strength is given. Where a sequence is shown, tags or fusion partners need not be part of it.", "data": [{"binder": "GST-Nephrin cytoplasmic domain, tyrosine phosphorylated (TKB1) (domain or fragment, UniProt Q9QZS7 1100-1256, tyrosine phosphorylated (expressed in TKB1 E. coli); sites not stated) WRRRLRRLAEEISEKTEAGSEEDRIRNEYEESQWTGDRDTRSSTVSTAEVDPHYYSMRDFSPQLPPTLEEVSYRQAFTGIEDEDMAFPGHLYDEVERVYGPPGVWGPLYDEVQMDPYDLRWPEVKYEDPRGIYDQVAADMDAGEPGSLPFELRGHLV", "values": [{"measurement": "binding", "result": "binds"}]}]}
